Test results: patent US7071334B2, “6-(2-chloro-6-fluoro-phenyl)-triazolopyrimidines” (priority 2001, dated 2006)
Some entries share one result that the patent states for a list of compounds.

Tests used:
Assay type in all cases: in vivo
Pyricularia oryzae = conditions: rice seedlings treated with 250 ppm, inoculated following day, assessed after 6 days; untreated 90 to 100%
Alternaria solani = test: Use Example 1: Action on Alternaria solani in tomatoes; conditions: tomato seedlings treated with 63 ppm, infected after 24 hours, assessed after 5 days; untreated 100%
Plasmopara viticola = test: Use Example 2: Action on Plasmopara viticola (vines, duration of action); conditions: potted vines treated with 250 ppm, infected 8 days after spraying; untreated 85%

| Compound | infection (% diseased leaf area) (Pyricularia oryzae) | infection (Alternaria solani) | infection (Plasmopara viticola) |
| --- | --- | --- | --- |
| CC1CCN(c2c(-c3c(F)cccc3Cl)c(OC(C)C)nc3ncnn23)CC1 [I-63] | up to 30% | – | – |
| C=C(C)CN(CC)c1c(-c2c(F)cccc2Cl)c(C#N)nc2ncnn12 [I-1] | – | up to 3% | up to 20% |
| CC(C)Nc1c(-c2c(F)cccc2Cl)c(C#N)nc2ncnn12 [I-2, 5-cyano-6-(2-chloro-6-fluorophenyl)-7-isopropylamino-[1,2,4]-triazolo[1,5-α]pyrimidine] | – | – | up to 20% |
| CCN(CC)c1c(-c2c(F)cccc2Cl)c(C#N)nc2ncnn12 [I-5] | up to 30% | – | – |
